Values quoted from earlier work, collected in PMC12056735 (RSC Advances, 2025).
Read-outs that look alike come from different tables or passages of the source.

System: HepG2
Settings: cited from earlier work

CNC(=O)c1cc(Oc2ccc(NC(=O)Nc3ccc(Cl)c(C(F)(F)F)c3)cc2)ccn1 [Sorafenib]
IC50 (read-out: IC50 against HepG2): 7.4 µM | IC50 (read-out: IC50 against HepG-2): 5.28 µM
